Data published in paper PMC11024185.
Residue numbers refer to the chain shown, from its start. These are yes or no findings as the source states them, for the method shown. In cells and extracts the contact can be indirect. Some binding calls cover weakened binding; strength is not graded here. Where a sequence is shown, tags or fusion partners need not be part of it.

B1: Rrp15 (protein, UniProt Q06511 1-250)
chain: MGSKHRVDTKDKKRTRKNAEFGREKRNSGNQELSNEPEKDTIMEGDEAEEDEQNSSSDESSKIIDNEQSDAEEDDDEEEEDDDFPRKKKSKNSKHDDGSTGFSAAVNAILSSHLKAYDRKDPIMARNKKVLKQSESEKLEYKAKKALLAEKKKLLGKARKTDIIPIASGEDRSENIRKVLEKETALRKIAQKGAVKLFNAILATQVKTEKEVSENLSEIKNKEEKKELITEVSKEKFLDLVKAAAGSDNE
B2: Noc3 (protein, UniProt Q07896 1-663)
chain: MAKRNRSQFRIQERTAKKRKHEDSLLEGNVFQNAPEDMDENTIYSAKGSSWDEEEQDYEMVPRKNRSDTSNLVEGLPIKVNGKVERKLHKAQEKPKDDDEEDEDSNDSSEDDEGPNEEQEAEAKEDEPDTEEKILQLKEDIADLVTKVMEEPEENTAALGRLCKMVESKNPNTCKFSMLALVPVFKSIIPGYRIRPLTETEKKEKVSKEVSKLRNFEQALVYNYKNYVGRLQSLSKTPSNAAPIQVSLGILATQAAKELISTASHFNFRTDIFTLLLRRICKPRISTDPTSIQIIQTFETLLNEDEEGSISFEILRIFNKILKTRNFNIEESVLNMLLSLDVLHDYDPNTKLKGNVSAPKLKKKDRVHLSKKQRKARKEMQQIEEEMRNAEQAVSAEERERNQSEILKIVFTIYLNILKNNAKTLIGSVLEGLTKFGNMANFDLLGDFLEVMKELISDTEFDNLSSAEVRKALLCIVSAFSLISNTQYMKVNVDLSKFVDGLYALLPYICLDADIELSYRSLRLADPLNNEIIKPSVNVSTKAELLLKALDHVFFRSKSGTKERATAFTKRLYMCISHTPEKTSIAILKFIDKLMNRYPEISGLYSSEDRIGNGHFIMEADNPSRSNPEAATLWDNALLEKHYCPVVTKGLRSLSSRSKECSK
B3: Ssf1 (genomic C-terminal 3xFLAG-3C-2xProteinA tag) (protein, UniProt P38789 1-453)
chain: MAKRRQKKRTHAQLTPEQEQGIPKSMVIRVGQTSLANHSLNQLVKDFRQIMQPHTAIKLKERKSNKLKDFVVMCGPLGVTHLFMFTQSEKTGNVSLKIARTPQGPTVTFQVLDYSLGRDIKKFLKRPKSLNNDDVLNPPLLVLNGFSTSKRSGEDDQDVNVEKVIVSMFQNIFPPLNPARTSLNSIKRVFMINKDRETGEISMRHYFIDIREVEISRNLKRLYKAKNNLSKTVPNLHRKEDISSLILDHDLGAYTSESEIEDDAIVRVVDNQDVKAKHSQSLKSQRTPVEKKDNKEREKETEEEDVEMEEPKPSENLQPTPRKKAIKLTELGPRLTLKLVKIEEGICSGKVLHHEFVQKSSEEIKALEKRHAAKMRLKEQRKKEQEENIAKKKAVKDAKKQRKLERRKARAAEGGEGQGKDDAMSDDESSSSDSEHYGSVPEDLDSDLFSEVE
B4: Noc2 (genomic C-terminal 3xFLAG-3C-2xProteinA tag) (protein, UniProt P39744 1-710)
chain: MGKVSKSTKKFQSKHLKHTLDQRRKEKIQKKRIQGRRGNKTDQEKADAAGTREQQQLKKSAKEEVFKDMSVETFFEKGIEIPKENKKLKKKTTKEQSDEDSSSSEEEEDMGQSMAKLAEKDPEFYKYLEENDKDLLDFAGTNPLDGIDSQDEGEDAERNSNIEEKSEQMELEKEKIELSLKLVRKWKKQLHDSPSLKLLRNIISAFKVAVNLNKEENIEDYKYAITDEKAFHELMFMVLKDVPQAIQKMAPYKIVKGARTLPNGGNVSRVSSIVKSHAGSLLILLNDITNTETAALVLHSVNELMPYLLSYRRILKELIKSIVGVWSTTRELETQIASFAFLINTTKEFKKSMLETTLKTTYSTFIKSCRKTNMRSMPLINFQKNSAAELFGIDEVLGYQVGFEYIRQLAIHLRNTMNATTKKSSKINSAEAYKIVYNWQFCHSLDFWSRVLSFACQPEKENGSESPLRQLIYPLVQVTLGVIRLIPTPQFFPLRFYLIKSLIRLSQNSGVFIPIYPLLSEILTSTAFTKAPKKSPNLAAFDFEHNIKCTQAYLNTKIYQEGLSEQFVDLLGDYFALYCKNIAFPELVTPVIISLRRYIKTSTNVKLNKRLSTVVEKLNQNSTFIQEKRSDVEFGPTNKSEVSRFLNDVAWNKTPLGSYVAVQREVKEEKARLMRESMEEQDKERETEEAKLLNSLESDDDNEDVEMSDA
B5: Rrp14 (protein, UniProt P36080 1-434)
chain: MSNSLEERLRANSSAFDGLLALIPAKYYYDEKSQEQWKAKKKTKEQSKNDKLKKLDPEQRDDETSSTLEVMKKKEKDAKPVVLPGEKFKHMKMQKQKEATSKVEGDSDLNVEVNDPMIIAPDEDEEEEEDIKVIFDDEGNEIPLESKKDTTEPDRSVEKKSITEEEKLQRKKNLEALRSKLQAKISDMKSKRKAPGSREAILAQRKRKEELKKRKRLESEQEQDQDEIASDSDMEDIDSDLENNSKKRFKKGKKDSEINADGVMFQNIIFDDGARATSDLQRLRKAGRTKGPAKNDVKSHLKLLEAKKNKMEAKDELEQIKQKEKEKWQKAMLQAEGIKIRDDEKLLRKAIKRKEAQKRKSAIEWSERKRVVEDTISERQKRREENLRIRKDNKGKKRNKQEKMKRKYVGSAVPKKRAGFEGRLKTGKKKGGPK

target: T1, Dbp10 (wild type, steady state, affinity tagged) (S. cerevisiae) (UniProt Q12389); assay: tandem affinity purification (split tags); pre-60S particles from yeast lysate: IgG Sepharose (2xProteinA on Ssf1 or Noc2), 3C protease cleavage, then Strep-Tactin (Dbp10); Ribo-buffer pH 8.0; dbp10^R522V overexpressed, or steady-state DBP10 with 50 µM ADP-BeF3, or SPB4-AID depletion with auxin and 50 µM ADP-BeF3; composition of the particles as told with Supplementary Fig. 1b, c and the cryo-EM models
T1 sequence: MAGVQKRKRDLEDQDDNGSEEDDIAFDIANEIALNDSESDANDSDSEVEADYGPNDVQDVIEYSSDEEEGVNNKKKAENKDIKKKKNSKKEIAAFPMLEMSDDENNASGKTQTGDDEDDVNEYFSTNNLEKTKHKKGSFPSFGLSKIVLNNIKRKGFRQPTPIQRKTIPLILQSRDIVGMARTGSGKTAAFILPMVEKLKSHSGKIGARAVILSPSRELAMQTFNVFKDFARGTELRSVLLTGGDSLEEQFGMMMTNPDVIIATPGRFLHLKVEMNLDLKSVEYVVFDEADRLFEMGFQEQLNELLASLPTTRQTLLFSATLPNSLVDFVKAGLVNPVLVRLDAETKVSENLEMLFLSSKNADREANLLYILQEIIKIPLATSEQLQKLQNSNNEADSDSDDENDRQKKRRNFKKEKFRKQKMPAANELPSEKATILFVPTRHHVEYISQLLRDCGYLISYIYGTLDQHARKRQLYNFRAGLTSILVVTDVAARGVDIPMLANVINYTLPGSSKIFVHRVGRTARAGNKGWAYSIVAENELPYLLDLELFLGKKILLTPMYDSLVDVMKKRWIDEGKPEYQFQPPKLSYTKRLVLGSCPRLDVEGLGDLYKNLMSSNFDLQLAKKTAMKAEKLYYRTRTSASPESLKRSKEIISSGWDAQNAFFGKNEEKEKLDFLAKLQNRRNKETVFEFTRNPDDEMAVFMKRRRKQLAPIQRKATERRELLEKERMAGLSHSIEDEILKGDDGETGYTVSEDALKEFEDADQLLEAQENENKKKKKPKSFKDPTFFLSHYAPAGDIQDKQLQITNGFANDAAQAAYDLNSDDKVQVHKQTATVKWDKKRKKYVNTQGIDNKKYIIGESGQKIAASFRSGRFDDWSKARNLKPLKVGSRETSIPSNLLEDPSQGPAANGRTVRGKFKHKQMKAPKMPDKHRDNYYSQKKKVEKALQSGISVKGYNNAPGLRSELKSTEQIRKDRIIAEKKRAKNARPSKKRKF

binding, binds:
B1
B2
B3
B4
B5

target: T2, Dbp10^R522V (slow-hydrolysis mutant, overexpressed, N-terminal 3xStrep-sfGFP-bdNEDD-MYC tag) (S. cerevisiae) (UniProt Q12389); assay: as above
T2 sequence: T1 sequence with R522V

binding, binds:
B3
